PubChem BioAssay AID504808 | Drosophila RNAi Screening Center – 2011
The screen tested about 21,000 reagents; shown is a random part of those that have a named target and a result. In the full data, 18 (0.084%) were called active. 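Raw counts without plate normalisation, one of two replicates; the ratio scores behind the calls were not deposited.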 A number with no mark means an inactive call. Reagents against one gene are numbered here. The record does not give: the amount of reagent, the time to read-out.

Assay: 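Chromatin factors that keep E2F targets switched off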 (primary screen)
Cells: Drosophila S2 cells
Reagent: long dsRNA against Drosophila genes
Measurement: 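Firefly luciferase driven by E2F sites, normalised to Renilla luciferase on the same minimal promoter, measured by plate reader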
Direction: E2F firefly: higher = more E2F reporter activity; Renilla normaliser: higher = more normaliser reporter signal
Active means: 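Called active if the normalised E2F reporter went up by over 50%; the cutoff is arbitrary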

{"gene": "CG14500 (GeneID 37087)", "dsRNA no.": 1, "E2F firefly, rep 1": 1.37e5, "Renilla normaliser, rep 1": 4600}
{"gene": "GstS1 (GeneID 36927)", "dsRNA no.": 1, "E2F firefly, rep 1": 72455, "Renilla normaliser, rep 1": 3045}
{"gene": "CG9795 (GeneID 40545)", "dsRNA no.": 1, "E2F firefly, rep 1": 83088, "Renilla normaliser, rep 1": 3013}
{"gene": "cbt (GeneID 33224)", "dsRNA no.": 1, "E2F firefly, rep 1": 77314, "Renilla normaliser, rep 1": 3790}
{"gene": "scrib (GeneID 44448)", "dsRNA no.": 1, "E2F firefly, rep 1": 72395, "Renilla normaliser, rep 1": 2598}
{"gene": "scrib (GeneID 44448)", "dsRNA no.": 2, "E2F firefly, rep 1": 1764, "Renilla normaliser, rep 1": 960}
{"gene": "scrib (GeneID 44448)", "dsRNA no.": 3, "E2F firefly, rep 1": 1.28e5, "Renilla normaliser, rep 1": 7011}
{"gene": "CG8773 (GeneID 41634)", "dsRNA no.": 1, "E2F firefly, rep 1": 78297, "Renilla normaliser, rep 1": 3647}
{"gene": "Mitofilin (GeneID 42587)", "dsRNA no.": 1, "E2F firefly, rep 1": 70934, "Renilla normaliser, rep 1": 3080}
{"gene": "CG6978 (GeneID 31413)", "dsRNA no.": 1, "E2F firefly, rep 1": 91332, "Renilla normaliser, rep 1": 4018}
{"gene": "CG12464 (GeneID 36516)", "dsRNA no.": 1, "E2F firefly, rep 1": 99465, "Renilla normaliser, rep 1": 4593}
{"gene": "CG31638 (GeneID 33910)", "dsRNA no.": 1, "E2F firefly, rep 1": 1.57e5, "Renilla normaliser, rep 1": 5523}
{"gene": "CG31638 (GeneID 33910)", "dsRNA no.": 2, "E2F firefly, rep 1": 1.56e5, "Renilla normaliser, rep 1": 4997}
{"gene": "Klp59C (GeneID 37671)", "dsRNA no.": 1, "E2F firefly, rep 1": 1.19e5, "Renilla normaliser, rep 1": 4322}
{"gene": "mRpL19 (GeneID 41028)", "dsRNA no.": 1, "E2F firefly, rep 1": 1.34e5, "Renilla normaliser, rep 1": 6281}
{"gene": "CG11044 (GeneID 37281)", "dsRNA no.": 1, "E2F firefly, rep 1": 1.63e5, "Renilla normaliser, rep 1": 5466}
{"gene": "CG9265 (GeneID 35369)", "dsRNA no.": 1, "E2F firefly, rep 1": 1.05e5, "Renilla normaliser, rep 1": 4685}
{"gene": "CG9265 (GeneID 35369)", "dsRNA no.": 2, "E2F firefly, rep 1": 95403, "Renilla normaliser, rep 1": 3893}
{"gene": "Traf4 (GeneID 33638)", "dsRNA no.": 1, "E2F firefly, rep 1": 1.19e5, "Renilla normaliser, rep 1": 4463}
{"gene": "Traf4 (GeneID 33638)", "dsRNA no.": 2, "E2F firefly, rep 1": 79577, "Renilla normaliser, rep 1": 3178}
{"gene": "CG31156 (GeneID 42669)", "dsRNA no.": 1, "E2F firefly, rep 1": 67751, "Renilla normaliser, rep 1": 3645}
{"gene": "CG31156 (GeneID 42669)", "dsRNA no.": 2, "E2F firefly, rep 1": 1.07e5, "Renilla normaliser, rep 1": 7282}
{"gene": "VhaM9.7-d (GeneID 42041)", "dsRNA no.": 1, "E2F firefly, rep 1": 1.03e5, "Renilla normaliser, rep 1": 5651}
{"gene": "Muc26B (GeneID 50424)", "dsRNA no.": 1, "E2F firefly, rep 1": 1.37e5, "Renilla normaliser, rep 1": 4657}
{"gene": "wam (GeneID 42755)", "dsRNA no.": 1, "E2F firefly, rep 1": 99176, "Renilla normaliser, rep 1": 6515}
{"gene": "CG31064 (GeneID 43277)", "dsRNA no.": 1, "E2F firefly, rep 1": 1.16e5, "Renilla normaliser, rep 1": 5952}
{"gene": "CG31064 (GeneID 43277)", "dsRNA no.": 2, "E2F firefly, rep 1": 1.15e5, "Renilla normaliser, rep 1": 7293}
{"gene": "CG31064 (GeneID 43277)", "dsRNA no.": 3, "E2F firefly, rep 1": 1.17e5, "Renilla normaliser, rep 1": 6283}
{"gene": "CG31064 (GeneID 43277)", "dsRNA no.": 4, "E2F firefly, rep 1": 99693, "Renilla normaliser, rep 1": 6573}
{"gene": "CG6310 (GeneID 39237)", "dsRNA no.": 1, "E2F firefly, rep 1": 85772, "Renilla normaliser, rep 1": 4621}
{"gene": "CG31199 (GeneID 42456)", "dsRNA no.": 1, "E2F firefly, rep 1": 59480, "Renilla normaliser, rep 1": 2977}
{"gene": "CG9899 (GeneID 37676)", "dsRNA no.": 1, "E2F firefly, rep 1": 1.08e5, "Renilla normaliser, rep 1": 4199}
{"gene": "GstE11 (GeneID 37128)", "dsRNA no.": 1, "E2F firefly, rep 1": 76014, "Renilla normaliser, rep 1": 3838}
{"gene": "CG17032 (GeneID 39736)", "dsRNA no.": 1, "E2F firefly, rep 1": 1.70e5, "Renilla normaliser, rep 1": 7640}
{"gene": "Col4a1 (GeneID 33727)", "dsRNA no.": 1, "E2F firefly, rep 1": 91304, "Renilla normaliser, rep 1": 3568}
{"gene": "Acp53Ea (GeneID 36874)", "dsRNA no.": 1, "E2F firefly, rep 1": 1.61e5, "Renilla normaliser, rep 1": 5413}

2 entries already listed, arranged by “Renilla normaliser, rep 1”, low to high.
{"gene": "CG31156 (GeneID 42669)", "dsRNA no.": 1, "E2F firefly, rep 1": 67751, "Renilla normaliser, rep 1": 3645}
{"gene": "CG31156 (GeneID 42669)", "dsRNA no.": 2, "E2F firefly, rep 1": 1.07e5, "Renilla normaliser, rep 1": 7282}
